Measurements from article PMC10835844.
These are yes or no findings as the source states them, for the method shown. In cells and extracts the contact can be indirect. Some binding calls cover weakened binding; strength is not graded here. For some of these results: Where a sequence is shown, tags or fusion partners need not be part of it.

By UniProt entry, the sequences of proteins in these tests, tags left out. Where a name states a change or a piece, a line headed by the entry shows the natural chain unless it says otherwise.
UniProt Q14258: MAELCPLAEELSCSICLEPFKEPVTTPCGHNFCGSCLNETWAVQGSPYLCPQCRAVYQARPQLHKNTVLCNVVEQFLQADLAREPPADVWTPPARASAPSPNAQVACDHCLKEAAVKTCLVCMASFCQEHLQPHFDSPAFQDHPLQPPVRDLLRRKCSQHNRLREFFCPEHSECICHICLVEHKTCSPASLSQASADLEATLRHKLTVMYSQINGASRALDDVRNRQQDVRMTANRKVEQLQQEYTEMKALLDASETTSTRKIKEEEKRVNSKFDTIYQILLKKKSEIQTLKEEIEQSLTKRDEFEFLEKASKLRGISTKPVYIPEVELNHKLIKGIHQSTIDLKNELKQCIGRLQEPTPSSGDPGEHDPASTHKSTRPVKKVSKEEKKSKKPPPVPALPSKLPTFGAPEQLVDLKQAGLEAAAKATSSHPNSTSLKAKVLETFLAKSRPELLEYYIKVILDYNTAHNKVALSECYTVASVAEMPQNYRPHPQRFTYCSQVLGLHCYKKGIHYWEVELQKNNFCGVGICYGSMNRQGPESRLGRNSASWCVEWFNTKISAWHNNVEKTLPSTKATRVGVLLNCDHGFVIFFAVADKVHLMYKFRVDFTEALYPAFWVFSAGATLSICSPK

Columns and labels:
[1] = target: T1, NONO (Non-POU domain containing octamer binding), endogenous (human (endogenous in LN229 and U251)) (UniProt Q15233); experiment: co-IP; endogenous proteins; anti-TRIM25 or anti-NONO antibody or IgG on protein A/G magnetic beads, LN229 and U251 lysates (IP lysis buffer, overnight at 4 °C), immunoblotting
T1 sequence: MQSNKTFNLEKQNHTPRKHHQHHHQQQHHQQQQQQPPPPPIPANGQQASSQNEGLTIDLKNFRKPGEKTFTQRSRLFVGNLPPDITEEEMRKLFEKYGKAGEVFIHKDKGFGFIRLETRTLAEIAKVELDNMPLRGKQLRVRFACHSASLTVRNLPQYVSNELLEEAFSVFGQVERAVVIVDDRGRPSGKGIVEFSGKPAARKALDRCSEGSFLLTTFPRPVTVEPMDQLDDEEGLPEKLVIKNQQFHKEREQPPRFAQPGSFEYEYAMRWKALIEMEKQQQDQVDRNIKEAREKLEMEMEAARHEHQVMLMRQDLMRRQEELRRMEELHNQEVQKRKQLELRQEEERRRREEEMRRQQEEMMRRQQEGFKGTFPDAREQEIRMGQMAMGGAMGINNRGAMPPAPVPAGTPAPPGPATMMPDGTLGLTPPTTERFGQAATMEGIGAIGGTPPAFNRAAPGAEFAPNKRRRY

[2] = target: T2, HA-NONO full length (UniProt Q15233); experiment: co-IP; lysates of HEK293 cells transfected with HA-NONO and Flag-TRIM25 constructs; protein A/G magnetic beads, IP lysis buffer, overnight at 4 °C, immunoblotting; which tag was precipitated is not told
T2 sequence: T1 sequence

[3] = target: Tripartite motif 25 (TRIM25), endogenous (human (endogenous in LN229 and U251)) (UniProt Q14258); experiment: co-IP; endogenous proteins; anti-TRIM25 or anti-NONO antibody or IgG on protein A/G magnetic beads, LN229 and U251 lysates (IP lysis buffer, overnight at 4 °C), immunoblotting
[4] = target: Flag-TRIM25 full length (UniProt Q14258); experiment: co-IP; lysates of HEK293 cells transfected with HA-NONO and Flag-TRIM25 constructs; protein A/G magnetic beads, IP lysis buffer, overnight at 4 °C, immunoblotting; which tag was precipitated is not told

“Tripartite motif 25 (TRIM25), endogenous (from UniProt Q14258 1-630)” was tested, and the binding [1] was “binds”.

In the case of “Flag-TRIM25 ∆P-SPRY (deletion of amino acids 410–630) (from UniProt Q14258 1-409) (domain or fragment)”, the binding [2] is reported as “binds”.

B1: NONO (Non-POU domain containing octamer binding), endogenous (protein, UniProt Q15233 1-471)
chain: T1 sequence
B1 was tested, and the binding [3] was “binds”.

B2: HA-NONO ∆RRM2 (deletion of amino acids 148–229) (protein, UniProt Q15233)
chain: MQSNKTFNLEKQNHTPRKHHQHHHQQQHHQQQQQQPPPPPIPANGQQASSQNEGLTIDLKNFRKPGEKTFTQRSRLFVGNLPPDITEEEMRKLFEKYGKAGEVFIHKDKGFGFIRLETRTLAEIAKVELDNMPLRGKQLRVRFACHSLDDEEGLPEKLVIKNQQFHKEREQPPRFAQPGSFEYEYAMRWKALIEMEKQQQDQVDRNIKEAREKLEMEMEAARHEHQVMLMRQDLMRRQEELRRMEELHNQEVQKRKQLELRQEEERRRREEEMRRQQEEMMRRQQEGFKGTFPDAREQEIRMGQMAMGGAMGINNRGAMPPAPVPAGTPAPPGPATMMPDGTLGLTPPTTERFGQAATMEGIGAIGGTPPAFNRAAPGAEFAPNKRRRY
B2 was tested, and the binding [4] was “binds”.
